# From patent US20160339110A1
# The chains behind the UniProt entries cited, without tags or fusion partners. Residues count along the entry.
# UniProt Q99376, residues 87-761: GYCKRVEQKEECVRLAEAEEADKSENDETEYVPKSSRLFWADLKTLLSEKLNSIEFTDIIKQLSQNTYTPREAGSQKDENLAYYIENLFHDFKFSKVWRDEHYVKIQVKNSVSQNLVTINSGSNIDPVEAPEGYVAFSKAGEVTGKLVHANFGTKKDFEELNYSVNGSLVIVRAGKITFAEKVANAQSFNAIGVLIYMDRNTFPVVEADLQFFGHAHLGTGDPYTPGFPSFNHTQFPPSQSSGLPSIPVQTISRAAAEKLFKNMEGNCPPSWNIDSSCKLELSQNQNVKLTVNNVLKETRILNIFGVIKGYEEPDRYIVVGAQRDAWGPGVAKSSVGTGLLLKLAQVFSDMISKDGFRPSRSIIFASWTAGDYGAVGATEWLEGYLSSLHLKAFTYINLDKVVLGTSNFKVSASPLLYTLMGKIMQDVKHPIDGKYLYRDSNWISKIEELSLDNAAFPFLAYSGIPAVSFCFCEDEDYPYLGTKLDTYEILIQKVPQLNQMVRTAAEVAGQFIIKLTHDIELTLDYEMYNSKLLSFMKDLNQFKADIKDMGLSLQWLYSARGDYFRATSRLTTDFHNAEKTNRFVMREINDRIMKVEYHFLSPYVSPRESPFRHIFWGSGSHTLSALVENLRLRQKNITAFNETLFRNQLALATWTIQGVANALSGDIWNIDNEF
# These are yes or no findings as the source states them, for the method shown. Some entries that bind do so weakly or less than the wild type.
# How the values were obtained:
# [1] = molecular target: ectodomain of rat TfR1 (rat) (UniProt Q99376); experiment: ELISA
# [2] = molecular target: ectodomain of rat TfR1 (rat) (UniProt Q99376); experiment: ELISA, plate coated with 5 ug/ml ectodomain of TfR1, detection with HRP-conjugated protein L
Binder,binding [1],binding [2]
"tetrazine-conjugated scFv specific for TfR1 (scFv, C-terminal cysteine conjugated with Mal-PEG4-tetrazine) scFv: DIVITQSPSSLSASLGDTILITCHASQNINVWLSWFQQKPGNAPKLLIYKASNLHTGVPSRFSGSGSGTGFTLTISSLQPEDIATYYCQQGQSYPWTFGGGTKLEIKRGSTSGSGKPGSGEGSTKGQVQLQQPGAALVRPGASMRLSCKASGYSFTTYWMNWVKQRPGQGLELIGMIHPSDSEVRLNQKFKDKATLTVDTSSSTAYMQLNSPTSEDSAVYYCARFGLDYWGQGTTLTVSSGGGGSGGGGSC",binds,
scFv of mAb specific for ectodomain of TfR1 (VL and VH from monoclonal antibody OX26) (scFv) scFv: DIVITQSPSSLSASLGDTILITCHASQNINVWLSWFQQKPGNAPKLLIYKASNLHTGVPSRFSGSGSGTGFTLTISSLQPEDIATYYCQQGQSYPWTFGGGTKLEIKRGSTSGSGKPGSGEGSTKGQVQLQQPGAALVRPGASMRLSCKASGYSFTTYWMNWVKQRPGQGLELIGMIHPSDSEVRLNQKFKDKATLTVDTSSSTAYMQLNSPTSEDSAVYYCARFGLDYWGQGTTLTVSSGGGGSGGGGSC,binds,binds
